PMC6946706
These are yes or no findings as the source states them, for the method shown. In cells and extracts the contact can be indirect. Here binding means that the protein was enriched with, or labelled near, the bait; the list need not be complete.

Biological target: FLAG-RepID FL (U2OS stable) (UniProt Q8WWQ0)
Assay: affinity purification with mass spectrometry; anti-FLAG IP from a mixture of soluble nuclear and chromatin-bound fractions of U2OS cells stably expressing FLAG-RepID; IgG as negative control; beads washed three times with PBS

## BUB3 (endogenous) (from UniProt O43684 1-328)
  binding: binds
